# Structures were worked out from names or drawings and are uncertain.
# Sequences of proteins named here, by UniProt entry; tags and fusion partners are left off. A change or cut given only in a name is not applied to a line headed by its entry. Residues count along the entry.
# UniProt P08581, 25-1390 limits assumed: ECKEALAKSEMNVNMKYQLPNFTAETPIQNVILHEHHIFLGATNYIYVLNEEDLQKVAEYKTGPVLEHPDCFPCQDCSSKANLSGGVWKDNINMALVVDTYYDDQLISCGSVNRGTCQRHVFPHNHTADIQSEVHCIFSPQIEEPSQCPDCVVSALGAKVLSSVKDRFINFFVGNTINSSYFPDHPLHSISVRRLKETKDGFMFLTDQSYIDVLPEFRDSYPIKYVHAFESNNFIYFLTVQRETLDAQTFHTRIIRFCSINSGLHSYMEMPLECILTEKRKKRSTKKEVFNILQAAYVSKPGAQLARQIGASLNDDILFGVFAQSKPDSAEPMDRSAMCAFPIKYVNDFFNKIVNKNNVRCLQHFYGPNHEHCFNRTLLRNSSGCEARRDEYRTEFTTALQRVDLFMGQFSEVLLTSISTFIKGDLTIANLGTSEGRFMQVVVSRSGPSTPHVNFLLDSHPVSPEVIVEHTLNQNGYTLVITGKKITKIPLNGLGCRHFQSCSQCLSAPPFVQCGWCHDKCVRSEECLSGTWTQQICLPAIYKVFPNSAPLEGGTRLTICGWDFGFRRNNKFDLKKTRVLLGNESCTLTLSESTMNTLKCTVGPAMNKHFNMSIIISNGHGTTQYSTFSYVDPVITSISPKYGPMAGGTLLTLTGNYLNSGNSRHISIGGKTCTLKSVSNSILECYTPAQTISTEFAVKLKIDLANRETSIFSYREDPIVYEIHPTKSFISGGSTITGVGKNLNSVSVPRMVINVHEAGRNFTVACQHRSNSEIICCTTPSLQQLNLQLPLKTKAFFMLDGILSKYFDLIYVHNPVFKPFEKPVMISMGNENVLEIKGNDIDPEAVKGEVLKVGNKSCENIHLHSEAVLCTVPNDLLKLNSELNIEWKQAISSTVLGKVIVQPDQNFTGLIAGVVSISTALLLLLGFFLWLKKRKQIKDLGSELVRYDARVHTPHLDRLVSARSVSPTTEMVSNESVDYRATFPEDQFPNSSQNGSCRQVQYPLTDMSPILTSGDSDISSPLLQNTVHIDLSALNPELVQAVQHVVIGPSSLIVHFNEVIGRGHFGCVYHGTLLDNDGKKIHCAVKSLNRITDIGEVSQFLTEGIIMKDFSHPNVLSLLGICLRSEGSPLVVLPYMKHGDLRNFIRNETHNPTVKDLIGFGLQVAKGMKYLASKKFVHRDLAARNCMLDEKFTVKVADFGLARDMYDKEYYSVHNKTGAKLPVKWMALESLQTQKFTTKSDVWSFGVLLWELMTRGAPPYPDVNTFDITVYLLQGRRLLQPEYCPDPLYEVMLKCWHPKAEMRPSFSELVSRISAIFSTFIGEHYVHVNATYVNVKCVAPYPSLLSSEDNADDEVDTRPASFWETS
# UniProt P08581, 25-1390 D1228N limits assumed: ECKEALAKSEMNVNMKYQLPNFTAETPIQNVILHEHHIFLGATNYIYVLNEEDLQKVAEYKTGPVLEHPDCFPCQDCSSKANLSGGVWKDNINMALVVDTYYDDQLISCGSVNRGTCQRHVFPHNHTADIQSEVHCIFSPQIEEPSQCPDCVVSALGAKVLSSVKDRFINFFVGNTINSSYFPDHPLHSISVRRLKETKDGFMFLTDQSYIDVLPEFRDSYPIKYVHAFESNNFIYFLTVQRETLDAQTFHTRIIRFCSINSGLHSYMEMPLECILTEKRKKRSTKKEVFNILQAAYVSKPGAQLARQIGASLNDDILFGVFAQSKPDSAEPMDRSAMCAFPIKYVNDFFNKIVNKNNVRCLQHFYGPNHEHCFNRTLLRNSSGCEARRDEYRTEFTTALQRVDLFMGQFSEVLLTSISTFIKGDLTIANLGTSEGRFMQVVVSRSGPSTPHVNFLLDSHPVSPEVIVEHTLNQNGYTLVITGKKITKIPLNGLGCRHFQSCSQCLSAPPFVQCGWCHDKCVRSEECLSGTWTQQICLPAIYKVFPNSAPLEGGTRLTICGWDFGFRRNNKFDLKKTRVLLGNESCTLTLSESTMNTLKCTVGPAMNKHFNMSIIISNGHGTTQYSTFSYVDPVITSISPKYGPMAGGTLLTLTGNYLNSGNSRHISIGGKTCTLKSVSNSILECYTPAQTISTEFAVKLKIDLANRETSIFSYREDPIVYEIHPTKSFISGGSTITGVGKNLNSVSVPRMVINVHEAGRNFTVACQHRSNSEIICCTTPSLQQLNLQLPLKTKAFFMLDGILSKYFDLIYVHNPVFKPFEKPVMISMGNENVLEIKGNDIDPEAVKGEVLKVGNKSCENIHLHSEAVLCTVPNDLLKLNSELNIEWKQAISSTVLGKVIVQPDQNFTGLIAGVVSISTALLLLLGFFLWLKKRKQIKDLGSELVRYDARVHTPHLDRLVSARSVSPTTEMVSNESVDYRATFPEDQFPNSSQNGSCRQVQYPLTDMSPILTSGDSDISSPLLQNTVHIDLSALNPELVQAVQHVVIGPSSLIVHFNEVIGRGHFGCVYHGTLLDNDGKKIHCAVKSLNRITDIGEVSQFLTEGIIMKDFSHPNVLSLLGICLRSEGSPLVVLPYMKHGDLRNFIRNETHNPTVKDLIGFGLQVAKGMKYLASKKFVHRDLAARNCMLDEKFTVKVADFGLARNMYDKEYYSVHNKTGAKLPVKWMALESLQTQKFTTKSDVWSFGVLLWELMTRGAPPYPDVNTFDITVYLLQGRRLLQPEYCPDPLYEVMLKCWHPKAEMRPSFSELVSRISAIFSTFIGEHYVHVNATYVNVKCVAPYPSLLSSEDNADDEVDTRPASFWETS
# UniProt P08581, 25-1390 F1200I limits assumed: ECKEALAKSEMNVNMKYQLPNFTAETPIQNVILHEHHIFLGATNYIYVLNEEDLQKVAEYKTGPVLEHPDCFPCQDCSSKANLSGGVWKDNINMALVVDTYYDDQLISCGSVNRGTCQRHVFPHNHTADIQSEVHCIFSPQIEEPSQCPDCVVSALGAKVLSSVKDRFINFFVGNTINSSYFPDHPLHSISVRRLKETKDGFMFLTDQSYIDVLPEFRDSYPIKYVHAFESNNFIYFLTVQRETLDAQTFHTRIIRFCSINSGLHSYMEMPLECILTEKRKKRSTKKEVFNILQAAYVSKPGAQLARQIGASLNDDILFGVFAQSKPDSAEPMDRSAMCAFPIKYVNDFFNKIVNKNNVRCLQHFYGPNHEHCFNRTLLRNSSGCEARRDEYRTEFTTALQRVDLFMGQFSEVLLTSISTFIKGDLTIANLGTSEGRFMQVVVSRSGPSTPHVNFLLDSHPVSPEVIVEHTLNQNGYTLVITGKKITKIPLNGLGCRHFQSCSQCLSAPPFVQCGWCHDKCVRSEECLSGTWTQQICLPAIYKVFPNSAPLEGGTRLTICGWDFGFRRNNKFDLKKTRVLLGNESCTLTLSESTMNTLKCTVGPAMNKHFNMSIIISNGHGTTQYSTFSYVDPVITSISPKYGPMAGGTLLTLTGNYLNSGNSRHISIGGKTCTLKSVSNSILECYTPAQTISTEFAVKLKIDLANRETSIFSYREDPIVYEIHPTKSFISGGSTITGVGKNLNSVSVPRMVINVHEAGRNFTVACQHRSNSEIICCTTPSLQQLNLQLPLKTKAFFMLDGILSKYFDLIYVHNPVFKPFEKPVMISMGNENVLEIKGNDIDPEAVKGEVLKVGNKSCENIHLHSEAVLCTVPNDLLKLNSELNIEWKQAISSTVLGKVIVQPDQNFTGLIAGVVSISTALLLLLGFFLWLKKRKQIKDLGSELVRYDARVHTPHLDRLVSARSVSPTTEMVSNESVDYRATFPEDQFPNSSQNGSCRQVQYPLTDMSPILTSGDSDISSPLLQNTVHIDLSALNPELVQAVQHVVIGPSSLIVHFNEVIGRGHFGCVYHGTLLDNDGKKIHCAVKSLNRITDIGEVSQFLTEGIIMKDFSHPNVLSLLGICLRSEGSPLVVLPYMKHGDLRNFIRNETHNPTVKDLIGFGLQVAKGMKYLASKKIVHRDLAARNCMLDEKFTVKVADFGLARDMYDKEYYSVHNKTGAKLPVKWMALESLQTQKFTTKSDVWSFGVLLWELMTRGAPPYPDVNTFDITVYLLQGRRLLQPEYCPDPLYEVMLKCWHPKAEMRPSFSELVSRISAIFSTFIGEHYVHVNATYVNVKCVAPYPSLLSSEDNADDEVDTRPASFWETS
# Assays:
# Format in all cases: biochemical
# MET F1200I = MET F1200I (Homo sapiens, UniProt P08581, F1200I); assay: Kinase inhibition experiment (HTRF KinEASE-TK kit), mutant MET F1200I; conditions: read-out: IC50 (nM) of inhibition of mutant F1200I MET kinase, 10 concentrations, 3-fold dilution
# Experimental: (§1) The activity of the compounds was determined by detecting the residual amount of ATP after reacting with wild-type or mutant MET protein kinase by using an HTRF KinEASE-TK kit. […]
# (§2) The compounds were determined on the selected kinase, the solvent control was set and a total of 10 concentrations were detected, diluted 3-fold, 2 replicates per concentration.
# (§3) 1 volume of 5× kinase reaction buffer and 4 volumes of water; 5 mM MgCl2; 1 mM DTT; 1 mM MnCl2; or 2500 nm SEB.
# (§4) 1) 10 nl or 4 μlof the diluted compound was transferred to each well of the reaction plate (784075 or 264706, Greiner or Thermo) with a pipette, the reaction plate was sealed with a sealing plate, and centrifuged at 1000 for 1 minute. […]
# (§5) 5) the fluorescence signals at 615 nm (cryptate) and 665 nm (XL665) were read with Envision 2104 or TECAN.
# (§6) The data was analyzed using GraphPad Prism 6.0 or 7 software, and the dose-response curve was fitted with nonlinear S-curve regression, and the IC50 value was calculated therefrom. […]
# MET D1228N = MET D1228N (Homo sapiens, UniProt P08581, D1228N); assay: Kinase inhibition experiment (HTRF KinEASE-TK kit), mutant MET D1228N; conditions: read-out: IC50 (nM) of inhibition of mutant D1228N MET kinase, 10 concentrations, 3-fold dilution
# Experimental: as §1, §2, §3, §4, §5, §6
# [1] = target: wild type (WT) MET kinase (Homo sapiens, UniProt P08581); assay: Kinase inhibition experiment (HTRF KinEASE-TK kit), wild-type MET; conditions: read-out: IC50 (nM) of inhibition of wild type (WT) MET kinase, 10 concentrations, 3-fold dilution
# Experimental: as §1, §2, §3, §4, §5, §6
smiles,measurement,setting,value
C[C@H](CO)Nc1n[nH]c2nccc(Oc3ccc(NC(=O)c4cc(C#N)cc(-c5ccc(F)cc5)[n+]4[O-])cc3F)c12,IC50,MET F1200I,51.1 nM
same,IC50,MET D1228N,33.5 nM
same,IC50,[1],22.2 nM
